# Library screen at single concentrations

T. brucei: 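Whole-parasite assay of Trypanosoma brucei over 72 hours; the read-out is not stated. Concentration: 30 µM. The record gives no direction; compounds that gave an IC50 in retests scored well above the rest, so higher reads as stronger inhibition. Values scatter widely below zero; nearly all retest evidence comes from the higher of the two concentrations used. Of about 64,000 compounds tested this way, about 940 (1.5%) reached 50% or more in at least one test.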
Toxoplasma: 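Assay of Toxoplasma gondii numbers, read through their beta-galactosidase reporter with a colour substrate. Tested at 10 µM. Higher reads as fewer parasites (inferred from which compounds were picked for retests). Of about 67,000 compounds tested this way, about 260 (0.38%) reached 50% or more in at least one test.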

Results are given as percent effect. The record does not define 0% and 100%; most values in the screen are far below 50% and negative numbers occur (in some assays of this library far below -100). Compounds were drawn at random from those tested, without regard to their results.

Result for CCC[C@@H]1CN(Cc2cnc3c(S(C)(=O)=O)cnn3c2)C[C@H]1N(C)C was T. brucei: -53.76%; Toxoplasma: 3.842%.
Result for [H][C@]12CC[C@]([H])(CN(C(=O)N(C)C)C1)N(C(=O)c1cc(C(C)C)oc1C)C2 was T. brucei: -96.81%; Toxoplasma: 1.255%.
Result for O=C1OCCN1CCNC(=O)C1(N2CCCCC2)Cc2ccccc2C1 was T. brucei: 5.101%; Toxoplasma: -8.038%.
Result for Cc1cc(CNc2ccc(C(=O)N3CCCC(C)C3)cc2C)no1 (stereo unspecified) was T. brucei: 16.57%; Toxoplasma: -4.659%.
Result for CN(C)CCNc1cc(-c2ncccc2C(F)(F)F)c2cc[nH]c2n1 was T. brucei: -18.3%; Toxoplasma: -36.06%.
Result for O=C(O)c1cc(-c2ccoc2)cc(S(=O)(=O)N2CCSCC2)c1 was T. brucei: -8.577%; Toxoplasma: 4.057%.
Result for Cc1c(CN2CCc3nc4sccc4c(=O)n3CC2)cnn1C.Cl was T. brucei: 7.457%; Toxoplasma: 4.316%.
Result for Cc1nnc2n1CCN(CCC(=O)Nc1sccc1C#N)C2 was T. brucei: 35.14%; Toxoplasma: -12.37%.
Result for COC(=O)c1cccc(C2CNCCN2C)c1 (stereo unspecified) was T. brucei: -13.15%; Toxoplasma: 27.56%.
Result for Cc1cc(N2CCCN(C(=O)CSCC3CC3)CC2)ccn1 was T. brucei: -19.46%; Toxoplasma: 9.893%.
Result for Cc1noc(C)c1CN1CCC2(CC1)CN(c1ccccn1)CCO2.O=C(O)C(F)(F)F.O=C(O)C(F)(F)F was T. brucei: -39.39%; Toxoplasma: 1.386%.
Result for CC(C)CN1Cc2c(C(=O)NC3CC3)ncn2-c2ccccc2S1(=O)=O was T. brucei: -13.67%; Toxoplasma: 14.69%.
Result for Cc1ccc(NC2CCN(C(=O)c3ccco3)CC2)nn1 was T. brucei: -4.698%; Toxoplasma: 9.555%.
Result for CC(=O)N1CCCN(CCCSCc2ccccc2)CC1 was T. brucei: -11.34%; Toxoplasma: -2.06%.
Result for CN(CCOCC1CC1)C(=O)Cn1cccc(C(F)(F)F)c1=O was T. brucei: -4.103%; Toxoplasma: 5.065%.
Result for O=C(O)C(F)(F)F.[H][C@@]12CCN(Cc3ccccc3F)C[C@]1(COC)CCO2 was T. brucei: 19.38%; Toxoplasma: 9.732%.
Result for CCN1CCC(CC(=O)NCCc2nc(C)c(Cl)s2)CC1 was T. brucei: 4.855%; Toxoplasma: -13.98%.
Result for Cc1c(Cl)cccc1NC(=O)N1CCN(Cc2ccccn2)CC1 was Toxoplasma: 23.04%.
Result for CCCNCc1cn(Cc2ccccc2)nc1-c1cccnc1.Cl was T. brucei: 2.845%; Toxoplasma: 1.287%.
Result for CC(=O)N1CCCC(c2ccnc(Nc3cnccn3)n2)C1 (stereo unspecified) was T. brucei: -6.227%; Toxoplasma: -12.38%.
Result for Cc1nc(C2CCCN2CC(=O)NCCOc2ccc(F)cc2)no1 (stereo unspecified) was Toxoplasma: -18.02%.
Result for CCN1CCCN(C(=O)c2cnc(OC(C)C)c(Cl)c2)CC1 was T. brucei: -51.98%; Toxoplasma: 9.329%.
Result for COCc1ncn2c1CN(S(=O)(=O)c1ccc(C)cc1)CC2 was T. brucei: -41.61%; Toxoplasma: 9.705%.
Result for O=C(N1CCCC1)N1CCC2(CCN(Cc3ccccn3)C2=O)C1.O=C(O)C(F)(F)F (stereo unspecified) was T. brucei: -20.49%; Toxoplasma: 10.52%.
Result for [H][C@@]12OCCC[C@]1([H])N(S(C)(=O)=O)C[C@@H]2NC(=O)c1ccno1 was T. brucei: -67.01%; Toxoplasma: -27.81%.
Result for [H][C@]12CN(C(=O)c3ccc4c(c3)CCCC4)C[C@]1([H])N(C)C(=O)CO2 was T. brucei: -23.68%; Toxoplasma: 7.606%.
Result for N#Cc1cccc(C(=O)N2CCC(Nc3cccnn3)CC2)c1 was T. brucei: -6.386%; Toxoplasma: 8.621%.
Result for Cc1cccnc1N1CCN(C(=O)C(C)n2ccnc2C(C)C)CC1 (stereo unspecified) was T. brucei: 78.55%; Toxoplasma: -7.369%.
Result for Cc1noc(-c2ccc(N3CCN(Cc4ncccc4C)CC3)nc2)n1 was T. brucei: -8.999%; Toxoplasma: 19.33%.
Result for CCCS(=O)(=O)Nc1ccc2c(c1)OCC(C)(C)C(=O)N2C was T. brucei: -67.33%; Toxoplasma: 1.095%.
Result for CNC(=O)C1CCC2(CCNCC2)C1.O=C(O)C(F)(F)F (stereo unspecified) was T. brucei: -2.723%; Toxoplasma: -13.87%.
Result for O=C(O)C(F)(F)F.O=C(O)C(F)(F)F.c1ccc(CN2CCCn3nnc(COc4ccccn4)c3C2)nc1 was Toxoplasma: -8.88%.
Result for COc1c(C)cc(S(=O)(=O)NCC2CNCCOC2)cc1C (stereo unspecified) was T. brucei: -59.37%; Toxoplasma: 5.008%.
Result for CC(C)CNC(=O)c1cn(C)c(=O)c2ccccc12 was Toxoplasma: 1.903%.
Result for O=C(O)C(F)(F)F.[H][C@@]12C[C@@H](c3nc(C4CC4)cs3)O[C@]1([H])CN(C(=O)c1cnccn1)C2 was T. brucei: -46.52%; Toxoplasma: 5.545%.
Result for O=C(O)C(F)(F)F.[H][C@@]12COC[C@@H](C(=O)N3CCCO3)[C@]1([H])CN(C1CCCC1)C2 was T. brucei: 14.32%; Toxoplasma: 3.325%.
Result for CNC(=O)[C@@H](c1ccccc1F)N1CCC[C@H]1C(=O)NC1CCCC1.Cl was T. brucei: 23.26%; Toxoplasma: 5.172%.
Result for NC(=O)Cn1ccc(NC(=O)C2(c3cccc(Cl)c3)CC2)n1 was T. brucei: -36.79%; Toxoplasma: -34.26%.
Result for CCN1CCN(C(=O)c2ccn(C)c(=O)c2)CC1 was T. brucei: -2.625%; Toxoplasma: -2.531%.
Result for CCC(C)N(Cc1ccncc1)Cc1ccc(-n2cccn2)cc1 (stereo unspecified) was T. brucei: 3.718%; Toxoplasma: 0.4063%.

Once more, the final 3:

SMILES,T. brucei,Toxoplasma
NC(=O)Cn1ccc(NC(=O)C2(c3cccc(Cl)c3)CC2)n1,-36.79%,-34.26%
CCN1CCN(C(=O)c2ccn(C)c(=O)c2)CC1,-2.625%,-2.531%
CCC(C)N(Cc1ccncc1)Cc1ccc(-n2cccn2)cc1 (stereo unspecified),3.718%,0.4063%

Measurements from “University of Dundee, Small-Polar-MMV Screening Library” (2021), ChEMBL document CHEMBL3988442.